Measured values published in US20050020854A1, “Alkyl(en)ylglycerinether carboxylic acids” (priority 2001, published 2005).

Key:
[1] = Foam volume to DIN Standard EN 12728 (beating with perforated plate); format: physicochemical; settings: 0.1 g active substance/l, 40° C., 0° dH, pH 6.0
[2] = Rotor foam test; format: physicochemical; settings: 40° C., pH 6, 0.5 g/l

## mono-C12-glycerol ether carboxylic acid [Example 1]
[1]; after 5 mins.
  Foam height: 190 mL
[1]; after 10 mins.
  Foam height: 180 mL
[1]; after 20 mins.
  Foam height: 180 mL
[1]; immediately after beating
  Foam height: 190 mL
[2]; 30 s, 0° dH
  rotor foam: 110 mL
[2]; 30 s, 16° dH
  rotor foam: 80 mL
[2]; 60 s, 0° dH
  rotor foam: 150 mL
[2]; 60 s, 16° dH
  rotor foam: 90 mL
[2]; 90 s, 0° dH
  rotor foam: 180 mL
[2]; 90 s, 16° dH
  rotor foam: 90 mL
[2]; 120 s, 0° dH
  rotor foam: 205 mL
[2]; 120 s, 16° dH
  rotor foam: 90 mL

## mono-C12-glycerol ether+4EO ether carboxylic acid [Example 2]
[2]; 30 s, 0° dH
  rotor foam: 280 mL
[2]; 30 s, 16° dH
  rotor foam: 220 mL
[2]; 60 s, 0° dH
  rotor foam: 450 mL
[2]; 60 s, 16° dH
  rotor foam: 350 mL
[2]; 90 s, 0° dH
  rotor foam: 680 mL
[2]; 90 s, 16° dH
  rotor foam: 470 mL
[2]; 120 s, 0° dH
  rotor foam: 850 mL
[2]; 120 s, 16° dH
  rotor foam: 520 mL
